Source: patent publication US12251379B2, “Methods of inhibiting formation of alpha synuclein aggregates” (THE REGENTS OF THE UNIVERSITY OF CALIFORNIA, priority 2018, dated 2025)
Entries after “also recorded” stand apart in the source; their conditions may differ. At least one compound was matched to its structure with a doubt left.

Legend:
[1] = system: MPTP-induced dopaminergic neurotoxicity in the mouse striatum; assay: MPTP-induced mouse model of PD: DA, DOPAC, HVA in striatum by HPLC; assay type: in vivo
[2] = system: ER stress, oxidative stress, sEH and α-synuclein proteins in the mouse striatum; assay: Western blot analysis of mouse striatum after MPTP; assay type: in vivo; settings: MPTP 10 mg/kg×3, 7 days after injection
Procedure: Western blot analysis of mouse brain samples. Western blot analysis was performed as reported previously (53,56). Mice were killed by cervical dislocation and brains were rapidly removed from the skull, and the striatum of mice were dissected on ice. The tissue samples were homogenized in Laemmli lysis buffer. […] Proteins were transferred onto polyvinylidenedifluoride (PVDF) membranes using a Trans Blot Mini Cell (Bio-Rad). For immunodetection, the blots were blocked with 2% BSA in TBST (TBS+0.1% Tween-20) for 1 h at room temperature (RT), and kept with primary antibodies overnight at 4° C. […] After final three washes with TBST, bands were detected using enhanced chemiluminescence (ECL) plus the Western Blotting Detection system (GE Healthcare Bioscience). Images were captured with a ChemDoc imaging system (Bio-Rad), and the immunoreactive bands were analysis by Image Lab software.

[3] = system: PARK2 iPSC-derived neurons; assay: Apoptosis in PARK2 iPSC-derived midbrain dopaminergic neurons; assay type: cell-based, human; settings: 10 μM TPPU, 10 days
[4] = system: depression-like phenotype; settings: in vivo; cited from earlier work
[5] = system: MPTP-induced neurotoxicity in the striatum and SN; assay: MPTP-induced mouse model of PD: immunohistochemistry of DAT and TH; settings: TPPU 3 mg/kg, 9:00 and 19:00, PO; MPTP 10 mg/kg×3

**Q.** What does the source list for `CCC(=O)N1CCC(NC(=O)Nc2ccc(OC(F)(F)F)cc2)CC1` [TPPU, 1-trifluoromethoxyphenyl-3-(1-propionylpiperidin-4-yl) urea]?
**A.** reduction of DA, DOPAC, and HVA in the striatum after MPTP injection ([1]; TPPU 3 mg/kg, twice daily, PO, MPTP 10 mg/kg×3 IP, day 8): significantly attenuated; reductions of DA and its metabolites (DOPAC and HVA) in the striatum after MPTP, dose dependence ([1]; TPPU 0.3, 1.0, or 3.0 mg/kg PO, in a dose dependent manner): attenuated; levels of DA, DOPAC, and HVA in the striatum, TPPU alone ([1]; TPPU alone (saline instead of MPTP)): did not alter; MPTP-induced ER stress in the mouse striatum [2]: protected against; MPTP-induced oxidative stress in the mouse striatum (GSH, iNOS, SOD) [2]: protected against; apoptosis (cleaved caspase-3) in PARK2 iPSC-derived TH-positive neurons [3]: decreased cleaved caspase-3 expression in PARK2 neurons to similar levels as control neurons; also recorded: significantly decreased; numbers of TH-positive DA neurons in the differentiated cells ([3]; control and PARK2 iPSC-derived neurons): not changed; also recorded: not affected; effects in the inflammation and chronic social defeat stress models of depression [4]: prophylactic and therapeutic effects; MPTP-induced neurotoxicity in the striatum and SN (DAT and TH immunoreactivity, TH-positive cells) [5]: significantly attenuated
